We go through 18 molecules from PubChem BioAssay AID248 (DTP/NCI, 2004).

For this experiment, the system named is L1210 leukemia ip in BDF1 mice, survival T/C. Briefly: NCI In Vivo Anticancer Drug Screen. Data for tumor model L1210 Leukemia (intraperitoneal) in B6D2F1 (BDF1) mice. The note with it: T/C endpoint: mean survival time, higher T/C = longer survival.
[1] abbreviates: dose: 400.0 mg/kg/injection, schedule: Q01DX001 (ip), vehicle: carboxymethylcellulose (CMC).
Setting [2] is: dose: 50.0 mg/kg/injection, schedule: Q01DX001 (ip), vehicle: saline.
Setting [3] is: dose: 100.0 mg/kg/injection, schedule: Q01DX001 (ip), vehicle: saline.
The mark [4] stands for this setting: dose: 200.0 mg/kg/injection, schedule: Q01DX001 (ip), vehicle: saline.
Setting [5] is: dose: 400.0 mg/kg/injection, schedule: Q01DX001 (ip), vehicle: saline.
Setting [6] is: dose: 150.0 mg/kg/injection, schedule: Q01DX001 (ip), vehicle: saline.
Where [7] appears, read: dose: 300.0 mg/kg/injection, schedule: Q01DX001 (ip), vehicle: saline.
Where [8] appears, read: dose: 400.0 mg/kg/injection, schedule: Q04DX003 (ip), vehicle: Klucel (hydroxypropylcellulose) (HPC).

The list is a part of this screen's results and no random one: it gathers tests that were run many times, whatever their T/C, doses with no T/C, and many T/C values between a quarter and a half above the control. Other doses and runs of a compound stand elsewhere. T/C gives the treated animals as a percentage of the vehicle group. Some entries give survivors of the animals treated and no T/C: the source holds a T/C of zero for them, seemingly a mark for toxic or unscored doses. Some doses without a T/C left all or most animals alive at the check, yet need not have been tolerated: the source hardly ever lists a survival T/C far under the control, and the zero likely stands for such cases as well. Survivors were counted at the toxicity check, usually on the fifth day, unless a day is given; later deaths do not show. Schedule codes are those of the source, read here as Q, the interval in days (D) or hours (H), X, the number of doses. Some schedule codes hold Z or #, which are not explained here. For survival time, the PubChem record calls one and a half times the control and up active, and a quarter to a half above the control has no call in these data; cut-offs in other NCI protocols can differ.

Regarding `COC1CCC(NC(=O)N(CCCl)N=O)CC1` (stereo unspecified), the T/C (dose: 12.0 mg/kg/injection, schedule: Q01DX001 (ip), vehicle: saline with Tween-80, evaluated on day 30) was 147 % of control; the T/C (dose: 12.0 mg/kg/injection, schedule: Q01DX001 (ip), vehicle: saline with Tween-80, evaluated on day 45) was 131 % of control; the T/C (dose: 90.0 mg/kg/injection, schedule: Q01DX001 (ip), vehicle: saline with Tween-80) is 145 % of control. Further, the survivor count is, setting by setting: (dose: 80.0 mg/kg/injection, schedule: Q01DX001 (ip), vehicle: saline with Tween-80) 10 of 10; (dose: 120.0 mg/kg/injection, schedule: Q01DX001 (ip), vehicle: saline with Tween-80) 9 of 10; (dose: 135.0 mg/kg/injection, schedule: Q01DX001 (ip), vehicle: saline with Tween-80) 8 of 10; (dose: 178.0 mg/kg/injection, schedule: Q01DX001 (ip), vehicle: saline with Tween-80) 6 of 10; (dose: 200.0 mg/kg/injection, schedule: Q01DX001 (ip), vehicle: saline with Tween-80) 8 of 10; (dose: 266.0 mg/kg/injection, schedule: Q01DX001 (ip), vehicle: saline with Tween-80) 7 of 10. In addition, the survivor count is 3 of 10 (dose: 300.0 mg/kg/injection, schedule: Q01DX001 (ip), vehicle: saline with Tween-80) and 0 of 10 (dose: 400.0 mg/kg/injection, schedule: Q01DX001 (ip), vehicle: saline with Tween-80).

Regarding `Cc1cc2oc(=O)cc(C)c2c(=O)o1`, the survivor count under setting [1] is 4 of 4.

For the molecule `SCCCN1CCCCC1`, the survivor count is, setting by setting: under setting [2], 2 of 4; under setting [3], 0 of 4; under setting [4], 0 of 4; under setting [5], 0 of 4.

As for `CCN(CC)CCSC(=O)C(O)(c1ccccc1)c1ccccc1`, the survivor count reads like this: under setting [6], 3 of 6; under setting [7], 0 of 6.

Regarding `O=C(COc1ccc(Cl)cc1Cl)Nc1ccc(NC(=O)COc2ccc(Cl)cc2Cl)cc1`, the survivor count (dose: 100.0 mg/kg/injection, schedule: Q04DX002 (ip), vehicle: Klucel (hydroxypropylcellulose) (HPC)) is 3 of 3; the survivor count (dose: 200.0 mg/kg/injection, schedule: Q04DX002 (ip), vehicle: Klucel (hydroxypropylcellulose) (HPC)) is 3 of 3; the survivor count (dose: 400.0 mg/kg/injection, schedule: Q04DX002 (ip), vehicle: Klucel (hydroxypropylcellulose) (HPC)) is recorded as 3 of 3.

With `C/C(Cl)=C/C(=O)O`, the T/C (dose: 100.0 mg/kg/injection, schedule: Q04DX002 (ip), vehicle: saline) is 132 % of control. The survivor count (dose: 400.0 mg/kg/injection, schedule: Q04DX002 (ip), vehicle: saline) is recorded as 2 of 3.

For the molecule `Cc1ccc([N+](=O)[O-])cc1NC(=O)Nc1ccccc1O`, the survivor count (dose: 200.0 mg/kg/injection, schedule: Q01DX009 (ip), vehicle: Klucel (hydroxypropylcellulose) (HPC)) was 6 of 6.

As to `CC(=O)Oc1cc(C(C)C)c(OCCN(C)C)cc1C`, the survivor count is, setting by setting: (dose: 100.0 mg/kg/injection, schedule: Q01DX009 (ip), vehicle: saline) 3 of 6; (dose: 200.0 mg/kg/injection, schedule: Q01DX009 (ip), vehicle: saline) 0 of 6; (dose: 400.0 mg/kg/injection, schedule: Q01DX009 (ip), vehicle: saline) 0 of 6.

Regarding `O=C1c2cccc([N+](=O)[O-])c2C(=O)N1c1ncn[nH]1`, the T/C under setting [3] was 135 % of control. Further, the survivor count under setting [6] is 4 of 4.

Regarding `c1ccc2c[n+]3ccccc3cc2c1`, the survivor count is on record as 2 of 6 (dose: 35.0 mg/kg/injection, schedule: Q01DX009 (ip), vehicle: saline); 0 of 6 (dose: 55.0 mg/kg/injection, schedule: Q01DX009 (ip), vehicle: saline); 1 of 6 (dose: 80.0 mg/kg/injection, schedule: Q01DX009 (ip), vehicle: saline); 0 of 6 (dose: 100.0 mg/kg/injection, schedule: Q04DX003 (ip), vehicle: saline); 0 of 6 (dose: 200.0 mg/kg/injection, schedule: Q04DX003 (ip), vehicle: saline); 0 of 6 (dose: 400.0 mg/kg/injection, schedule: Q04DX003 (ip), vehicle: saline).

Consider `C=C1C(=O)OC2CC3(C)OC3C3OC3C3=CC(OC3=O)C12` (stereo unspecified), for which the survivor count runs as follows: (dose: 10.0 mg/kg/injection, schedule: Q01DX001 (ip), vehicle: carboxymethylcellulose (CMC)) 1 of 4; (dose: 20.0 mg/kg/injection, schedule: Q01DX001 (ip), vehicle: carboxymethylcellulose (CMC)) 0 of 4; (dose: 40.0 mg/kg/injection, schedule: Q01DX001 (ip), vehicle: carboxymethylcellulose (CMC)) 0 of 4; (dose: 50.0 mg/kg/injection, schedule: Q01DX001 (ip), vehicle: carboxymethylcellulose (CMC)) 0 of 4; (dose: 80.0 mg/kg/injection, schedule: Q01DX001 (ip), vehicle: carboxymethylcellulose (CMC)) 0 of 4; (dose: 100.0 mg/kg/injection, schedule: Q01DX001 (ip), vehicle: carboxymethylcellulose (CMC)) 0 of 4. Further, the survivor count runs as follows: (dose: 200.0 mg/kg/injection, schedule: Q01DX001 (ip), vehicle: carboxymethylcellulose (CMC)) 0 of 4; under setting [1], 0 of 4.

As to `O=C1c2cccc3cccc(c23)C1(Br)Br`, under “dose: 300.0 mg/kg/injection, schedule: Q01DX001 (ip), vehicle: other”, the survivor count was 2 of 5.

`c1ccc(C(N2CCCCC2)N2CCCCC2)cc1`: under setting [8], the survivor count is 2 of 3.

As for `O=C(CCl)c1ccc(Oc2ccccc2)cc1`, the survivor count reads like this: (dose: 80.0 mg/kg/injection, schedule: Q01DX009 (ip), vehicle: Klucel (hydroxypropylcellulose) (HPC)) 3 of 6; (dose: 200.0 mg/kg/injection, schedule: Q04DX003 (ip), vehicle: Klucel (hydroxypropylcellulose) (HPC)) 3 of 6; under setting [8], 0 of 6.

As for `COc1c(OC2OC(CO)C(O)C(O)C2O)cc2c(c1OC)-c1ccc(SC)c(=O)cc1C(NC(C)=O)CC2` (stereo unspecified), the survivor count by setting is: under setting [2], 1 of 6; under setting [3], 1 of 6; under setting [4], 2 of 6; under setting [5], 0 of 6.

Regarding `CC1CCc2ccccc2N1C1=NCCO1` (stereo unspecified), the survivor count is, setting by setting: (dose: 75.0 mg/kg/injection, schedule: Q04DX003 (ip), vehicle: saline) 1 of 6; under setting [6], 0 of 6; under setting [7], 0 of 6.

Take `CC(C)c1ccc(/C=N/N=C(N)N)cc1`: the survivor count (dose: 30.0 mg/kg/injection, schedule: Q01DX Z (ip), vehicle: other) is given as 0 of 6; the survivor count (dose: 62.5 mg/kg/injection, schedule: Q01DX Z (ip), vehicle: saline) was 0 of 6; the survivor count (dose: 125.0 mg/kg/injection, schedule: Q01DX Z (ip), vehicle: saline) is recorded as 0 of 6; the survivor count (dose: 250.0 mg/kg/injection, schedule: Q01DX Z (ip), vehicle: saline) is reported as 0 of 6; the survivor count (dose: 500.0 mg/kg/injection, schedule: Q01DX Z (ip), vehicle: saline) is listed as 0 of 6.

Take `COC(=O)c1ccccc1OC(=O)Nc1ccc(SC)cc1`: the T/C (dose: 200.0 mg/kg/injection, schedule: Q04DX002 (ip), vehicle: saline with Tween-80) was 125 % of control.
